# Experimental data published in the supplement of paper PMC12819154, “High-throughput peptide-centric local stability assay extends protein–ligand identification to membrane proteins, tissues and bacteria” (Nature Structural & Molecular Biology, 2025).
# This is one part of the list. Small differences around the control level are noise.
# Compound: CN[C@@H]1C[C@H]2O[C@@](C)([C@@H]1OC)n1c3ccccc3c3c4c(c5c6ccccc6n2c5c31)C(=O)NC4 [staurosporine]
# Assay: log2 fold change of pooled soluble protein (PISA), ligand vs vehicle (log2 ratio); higher = more thermally stabilized
# Conditions: ligand concentration: 20 uM; assay format: PISA pool 52.9/55.5/58.6 C
row,Target,log2 fold change of pooled soluble protein
1,UniProt Q9D8V0,0.147
2,UniProt Q9D8T4,0.174
3,UniProt Q9CZR2,0.146
4,UniProt Q9DB42,-0.0239
5,UniProt Q9D1G5,0.00654
6,UniProt Q9D9H8,-0.0188
7,UniProt Q9D6Y9,-0.188
8,UniProt Q9D8Z6,-0.215
9,UniProt Q9CZH3,-0.125
10,UniProt Q9D8B3,0.0256
11,UniProt Q9D8X2,0.0209
12,UniProt Q9D1R1,-0.105
13,UniProt Q9D819,-0.0543
14,UniProt Q9D6J5,-0.0501
15,UniProt Q9CZB3,-0.042
16,UniProt Q9D384,-0.226
17,UniProt Q9CYA0,-0.0171
18,UniProt Q9CZ04,-0.0713
19,UniProt Q9DAS9,0.0277
20,UniProt Q9CY45,-0.15
21,UniProt Q9D8S9,-0.0992
22,UniProt Q9D753,0.00444
23,UniProt Q9D2C7,0.138
24,UniProt Q9D9V3,0.0363
25,UniProt Q9DBR3,0.0731

# Copied from the list.
# Value for UniProt Q9DBR3 under log2 fold change of pooled soluble protein: 0.0731
# Value for UniProt Q9DB42 under log2 fold change of pooled soluble protein: -0.0239
# Value for UniProt Q9CZB3 under log2 fold change of pooled soluble protein: -0.042

# Further records follow.

row,Target,log2 fold change of pooled soluble protein
1,UniProt Q9D404,-0.0813
2,UniProt Q9CYX7,-0.0468
3,UniProt Q9D8P4,0.184
4,UniProt Q9CYI0,0.000665
5,UniProt Q9D7J9,-0.037
6,UniProt Q9D3P8,0.0862
7,UniProt Q9D168,0.071
8,UniProt Q9CZ44,0.128
9,UniProt Q9D6K5,0.0409
10,UniProt Q9CZR3,0.0161
11,UniProt Q9CZW5,-0.0256
12,UniProt Q9D6Y7,-0.0137
13,UniProt Q9DAI2,0.0409
14,UniProt Q9CYH2,0.166
15,UniProt Q9D8B1,0.354
16,UniProt Q9DBG7,0.0752
17,UniProt Q9DBL1,0.0848
18,UniProt Q9DAW6,0.0699
19,UniProt Q9D051,-0.166
20,UniProt Q9D8B7,0.482
21,UniProt Q9CXX9,0.0201
22,UniProt Q9DBB8,0.0614
23,UniProt Q9CY16,0.17
24,UniProt Q9D0K2,-0.611
25,UniProt Q9CY64,-0.0156

row,Target,log2 fold change of pooled soluble protein
1,UniProt Q9D832,0.232
2,UniProt Q9CXN7,0.0262
3,UniProt Q9DBU0,-0.00849
4,UniProt Q9D1Q4,-0.182
5,UniProt Q9D0S9,-0.0762
6,UniProt Q9DAR7,0.0119
7,UniProt Q9DBJ1,-0.0731
8,UniProt Q9D4H2,0.0994
9,UniProt Q9CZV8,-0.171
10,UniProt Q9DBH0,-0.135
11,UniProt Q9D023,0.233
12,UniProt Q9D8U8,-0.0186
13,UniProt Q9D554,-0.134
14,UniProt Q9D2G2,-0.0169
15,UniProt Q9D1L0,0.0245
16,UniProt Q9D906,0.363
17,UniProt Q9D198,-0.322
18,UniProt Q9D1F4,-0.147
19,UniProt Q9D1M7,-0.0812
20,UniProt Q9D7B6,-0.00832
21,UniProt Q9CZA6,0.115
22,UniProt Q9D964,-0.032
23,UniProt Q9CXZ1,-0.0266
